Test [1] concerns the target ActRIIA (ACVR2A) intracellular domain, residues 191-488 (human) (UniProt P27037). Description: SEC-MALS; Shodex KW-803 column; proteins at 5 mg/mL in 50 mM HEPES pH 7.5, 300 mM NaCl, 0.5 mM TCEP; 0.5 mL/min; receptor domains alone and mixed with FKBP12.6; both purified.
Test [2] concerns the target T1, FLAG-tagged full-length ALK2 (human) (UniProt Q04771).
T1 sequence: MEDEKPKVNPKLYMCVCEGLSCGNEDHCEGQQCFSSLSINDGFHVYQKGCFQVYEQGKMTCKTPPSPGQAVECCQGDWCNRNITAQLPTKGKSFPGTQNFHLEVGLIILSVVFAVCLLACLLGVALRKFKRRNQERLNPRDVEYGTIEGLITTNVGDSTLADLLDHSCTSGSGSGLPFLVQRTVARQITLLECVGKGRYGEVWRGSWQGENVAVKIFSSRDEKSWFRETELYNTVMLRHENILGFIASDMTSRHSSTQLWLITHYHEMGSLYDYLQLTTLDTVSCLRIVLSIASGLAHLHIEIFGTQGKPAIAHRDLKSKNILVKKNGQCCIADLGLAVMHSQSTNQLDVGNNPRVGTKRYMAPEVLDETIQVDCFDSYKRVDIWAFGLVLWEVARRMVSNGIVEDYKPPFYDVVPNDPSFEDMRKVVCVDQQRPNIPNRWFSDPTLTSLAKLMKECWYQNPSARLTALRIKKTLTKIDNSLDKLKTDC
Briefly: co-IP; MDA-MB-231 cells co-transfected with FLAG-tagged ALK2 and GFP-tagged FKBP12 or FKBP12.6; 1 mg lysate (20 mM Tris-HCl pH 7.5, 150 mM NaCl, 25 mM NaF, 0.1% Triton X-100) on anti-FLAG M2 beads, 2 h at 4 °C; blot with anti-GFP.

Sequences of proteins named here, by UniProt entry; tags and fusion partners are left off. Residues count along the entry.
UniProt P27037, residues 191-488: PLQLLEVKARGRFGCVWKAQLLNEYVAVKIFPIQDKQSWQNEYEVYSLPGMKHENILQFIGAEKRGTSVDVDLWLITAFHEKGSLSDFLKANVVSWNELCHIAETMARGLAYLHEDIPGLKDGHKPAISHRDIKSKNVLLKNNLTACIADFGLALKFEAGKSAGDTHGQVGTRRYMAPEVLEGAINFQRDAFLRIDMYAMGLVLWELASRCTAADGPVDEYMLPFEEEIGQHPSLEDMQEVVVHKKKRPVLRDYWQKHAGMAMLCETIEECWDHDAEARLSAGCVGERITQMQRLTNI
UniProt P68106: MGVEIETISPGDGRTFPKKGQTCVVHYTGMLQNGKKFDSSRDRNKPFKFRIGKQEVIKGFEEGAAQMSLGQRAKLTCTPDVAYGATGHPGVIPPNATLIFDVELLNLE

These are yes or no findings as the source states them, for the method shown. For some assays here: Binding seen in cells or lysates may run through a third protein. Some binding calls cover weakened binding; strength is not graded here. For some assays here: Tags and fused reporters may be left off the sequences shown.

As for “FKBP12.6 (FKBP1B), full length, recombinant (from UniProt P68106 1-108)”, the binding result in test [1] is given as “no binding (tested: 5 mg/mL)”.
On to “GFP-tagged full-length FKBP12.6 (from UniProt P68106 1-108)”, for which, in test [2], the binding entry is given as “binds”.

The values above are taken from paper PMC7911104.
